The supplement of paper PMC12819154, “High-throughput peptide-centric local stability assay extends protein–ligand identification to membrane proteins, tissues and bacteria” (Nature Structural & Molecular Biology, 2025)
This is one part of the list. Small differences around the control level are noise.

The chains behind the UniProt entries cited, without tags or fusion partners. Where a name states a change or a piece, a line headed by the entry shows the natural chain unless it says otherwise.
UniProt O14497, whole entry: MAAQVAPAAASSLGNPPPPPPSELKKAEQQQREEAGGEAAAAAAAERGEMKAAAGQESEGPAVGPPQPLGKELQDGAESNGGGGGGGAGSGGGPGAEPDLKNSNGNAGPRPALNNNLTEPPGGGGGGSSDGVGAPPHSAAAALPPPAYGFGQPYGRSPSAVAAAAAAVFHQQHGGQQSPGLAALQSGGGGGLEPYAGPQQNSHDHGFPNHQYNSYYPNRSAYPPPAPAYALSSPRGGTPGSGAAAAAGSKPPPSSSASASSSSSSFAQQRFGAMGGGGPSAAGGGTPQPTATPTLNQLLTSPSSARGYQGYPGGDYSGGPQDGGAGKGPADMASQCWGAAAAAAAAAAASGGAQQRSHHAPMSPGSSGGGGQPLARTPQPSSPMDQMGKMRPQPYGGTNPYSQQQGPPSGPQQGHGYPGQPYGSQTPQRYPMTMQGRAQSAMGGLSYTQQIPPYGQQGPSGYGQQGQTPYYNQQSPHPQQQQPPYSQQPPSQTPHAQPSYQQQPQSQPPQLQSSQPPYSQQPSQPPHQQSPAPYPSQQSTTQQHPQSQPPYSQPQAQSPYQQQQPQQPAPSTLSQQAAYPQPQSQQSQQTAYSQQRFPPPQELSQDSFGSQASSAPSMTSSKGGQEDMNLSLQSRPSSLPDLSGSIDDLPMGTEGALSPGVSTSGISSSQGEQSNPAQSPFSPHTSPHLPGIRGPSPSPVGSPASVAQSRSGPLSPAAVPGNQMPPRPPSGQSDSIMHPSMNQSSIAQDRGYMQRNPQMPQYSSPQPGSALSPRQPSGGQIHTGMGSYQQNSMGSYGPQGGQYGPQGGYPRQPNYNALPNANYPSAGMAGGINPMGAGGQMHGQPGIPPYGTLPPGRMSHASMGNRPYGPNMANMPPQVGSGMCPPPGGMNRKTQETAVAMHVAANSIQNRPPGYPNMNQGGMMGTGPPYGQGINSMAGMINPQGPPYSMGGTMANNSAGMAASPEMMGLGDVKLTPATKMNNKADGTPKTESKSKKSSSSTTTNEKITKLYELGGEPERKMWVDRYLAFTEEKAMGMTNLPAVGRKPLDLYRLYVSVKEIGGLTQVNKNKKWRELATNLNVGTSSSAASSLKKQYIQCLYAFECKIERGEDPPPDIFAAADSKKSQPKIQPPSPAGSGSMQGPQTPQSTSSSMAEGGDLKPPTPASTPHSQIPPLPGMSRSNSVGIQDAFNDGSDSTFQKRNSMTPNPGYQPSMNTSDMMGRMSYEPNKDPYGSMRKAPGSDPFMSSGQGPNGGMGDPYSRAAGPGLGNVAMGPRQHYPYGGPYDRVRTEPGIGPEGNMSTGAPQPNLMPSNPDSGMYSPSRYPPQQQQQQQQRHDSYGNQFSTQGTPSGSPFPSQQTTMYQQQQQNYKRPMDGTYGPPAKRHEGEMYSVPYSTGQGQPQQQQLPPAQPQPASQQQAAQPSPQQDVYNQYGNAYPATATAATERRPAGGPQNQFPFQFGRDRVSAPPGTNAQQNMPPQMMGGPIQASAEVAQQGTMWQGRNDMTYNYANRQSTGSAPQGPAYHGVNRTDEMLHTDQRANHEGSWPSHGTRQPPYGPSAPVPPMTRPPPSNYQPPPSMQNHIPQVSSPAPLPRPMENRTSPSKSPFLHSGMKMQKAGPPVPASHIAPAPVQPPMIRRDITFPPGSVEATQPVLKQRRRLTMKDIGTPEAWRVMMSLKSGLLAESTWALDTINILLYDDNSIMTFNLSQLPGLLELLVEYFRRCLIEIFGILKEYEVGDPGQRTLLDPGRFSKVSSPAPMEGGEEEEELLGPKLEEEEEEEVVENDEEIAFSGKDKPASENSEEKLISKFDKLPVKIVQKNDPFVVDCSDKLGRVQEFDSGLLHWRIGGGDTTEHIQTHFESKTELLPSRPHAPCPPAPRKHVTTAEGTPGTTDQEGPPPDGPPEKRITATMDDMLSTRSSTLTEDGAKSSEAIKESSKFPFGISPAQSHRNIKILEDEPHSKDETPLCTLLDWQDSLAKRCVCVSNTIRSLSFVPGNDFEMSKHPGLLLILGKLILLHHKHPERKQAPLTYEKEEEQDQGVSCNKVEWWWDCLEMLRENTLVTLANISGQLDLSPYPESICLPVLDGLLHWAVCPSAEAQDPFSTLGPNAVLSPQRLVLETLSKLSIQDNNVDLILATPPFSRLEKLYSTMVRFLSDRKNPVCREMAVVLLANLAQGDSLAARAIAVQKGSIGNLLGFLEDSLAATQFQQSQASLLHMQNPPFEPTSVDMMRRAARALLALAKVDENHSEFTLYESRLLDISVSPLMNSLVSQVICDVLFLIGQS
UniProt O00562: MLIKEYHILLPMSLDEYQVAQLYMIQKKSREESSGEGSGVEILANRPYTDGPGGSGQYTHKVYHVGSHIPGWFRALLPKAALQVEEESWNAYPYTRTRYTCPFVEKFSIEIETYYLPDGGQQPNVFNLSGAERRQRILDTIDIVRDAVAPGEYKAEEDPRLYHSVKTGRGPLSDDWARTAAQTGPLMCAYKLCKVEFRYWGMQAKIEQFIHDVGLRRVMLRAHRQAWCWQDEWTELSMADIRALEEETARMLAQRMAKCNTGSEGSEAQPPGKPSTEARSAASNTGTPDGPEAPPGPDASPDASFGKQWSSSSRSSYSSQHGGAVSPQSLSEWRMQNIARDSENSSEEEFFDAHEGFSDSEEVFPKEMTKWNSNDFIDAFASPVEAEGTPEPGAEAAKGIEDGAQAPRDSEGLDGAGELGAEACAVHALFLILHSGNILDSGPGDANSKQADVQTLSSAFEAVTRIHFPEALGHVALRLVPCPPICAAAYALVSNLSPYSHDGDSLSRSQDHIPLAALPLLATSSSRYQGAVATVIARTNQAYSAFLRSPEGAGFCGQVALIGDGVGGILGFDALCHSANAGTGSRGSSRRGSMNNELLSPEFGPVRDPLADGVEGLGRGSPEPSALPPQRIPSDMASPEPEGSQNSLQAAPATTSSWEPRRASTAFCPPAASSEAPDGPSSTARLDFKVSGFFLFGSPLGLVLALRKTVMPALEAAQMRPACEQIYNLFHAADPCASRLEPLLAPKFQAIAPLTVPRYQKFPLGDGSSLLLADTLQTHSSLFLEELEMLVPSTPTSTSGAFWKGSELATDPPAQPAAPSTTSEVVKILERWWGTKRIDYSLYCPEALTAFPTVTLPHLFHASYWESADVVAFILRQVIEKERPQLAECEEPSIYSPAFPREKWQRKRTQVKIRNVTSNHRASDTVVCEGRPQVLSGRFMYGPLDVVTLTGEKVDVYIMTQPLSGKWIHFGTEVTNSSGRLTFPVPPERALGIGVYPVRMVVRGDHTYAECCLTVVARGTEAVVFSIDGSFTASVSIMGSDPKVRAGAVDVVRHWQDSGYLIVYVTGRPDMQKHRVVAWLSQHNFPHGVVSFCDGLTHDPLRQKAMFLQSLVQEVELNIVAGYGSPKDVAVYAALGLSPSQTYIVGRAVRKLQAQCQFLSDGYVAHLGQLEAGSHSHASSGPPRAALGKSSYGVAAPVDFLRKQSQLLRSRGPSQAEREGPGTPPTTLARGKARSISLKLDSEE
UniProt O00221: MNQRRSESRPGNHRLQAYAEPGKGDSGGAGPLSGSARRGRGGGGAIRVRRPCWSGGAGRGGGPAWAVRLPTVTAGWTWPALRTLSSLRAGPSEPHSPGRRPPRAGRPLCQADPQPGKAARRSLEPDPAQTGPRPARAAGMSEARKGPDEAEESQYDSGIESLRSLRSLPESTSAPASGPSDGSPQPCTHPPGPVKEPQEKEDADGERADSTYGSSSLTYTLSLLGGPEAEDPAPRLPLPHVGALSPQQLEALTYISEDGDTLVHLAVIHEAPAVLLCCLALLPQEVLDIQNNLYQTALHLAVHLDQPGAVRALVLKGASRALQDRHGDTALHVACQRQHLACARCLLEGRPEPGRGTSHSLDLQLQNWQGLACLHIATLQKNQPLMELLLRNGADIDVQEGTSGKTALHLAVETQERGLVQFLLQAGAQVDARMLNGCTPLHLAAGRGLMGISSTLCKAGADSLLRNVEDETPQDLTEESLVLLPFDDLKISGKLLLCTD
UniProt O14730: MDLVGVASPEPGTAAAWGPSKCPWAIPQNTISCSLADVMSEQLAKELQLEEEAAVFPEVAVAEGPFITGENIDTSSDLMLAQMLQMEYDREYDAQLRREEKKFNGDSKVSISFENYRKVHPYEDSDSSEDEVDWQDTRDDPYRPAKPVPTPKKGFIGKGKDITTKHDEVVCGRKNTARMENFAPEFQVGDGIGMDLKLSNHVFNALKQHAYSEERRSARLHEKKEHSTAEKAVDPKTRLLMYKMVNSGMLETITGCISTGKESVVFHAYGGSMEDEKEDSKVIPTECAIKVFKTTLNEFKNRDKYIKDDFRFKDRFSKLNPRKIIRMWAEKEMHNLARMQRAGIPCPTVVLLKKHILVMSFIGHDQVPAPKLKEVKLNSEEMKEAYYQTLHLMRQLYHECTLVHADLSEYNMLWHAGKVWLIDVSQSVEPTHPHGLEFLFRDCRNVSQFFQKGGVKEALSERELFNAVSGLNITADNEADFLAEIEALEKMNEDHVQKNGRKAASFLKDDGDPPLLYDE
UniProt O00291: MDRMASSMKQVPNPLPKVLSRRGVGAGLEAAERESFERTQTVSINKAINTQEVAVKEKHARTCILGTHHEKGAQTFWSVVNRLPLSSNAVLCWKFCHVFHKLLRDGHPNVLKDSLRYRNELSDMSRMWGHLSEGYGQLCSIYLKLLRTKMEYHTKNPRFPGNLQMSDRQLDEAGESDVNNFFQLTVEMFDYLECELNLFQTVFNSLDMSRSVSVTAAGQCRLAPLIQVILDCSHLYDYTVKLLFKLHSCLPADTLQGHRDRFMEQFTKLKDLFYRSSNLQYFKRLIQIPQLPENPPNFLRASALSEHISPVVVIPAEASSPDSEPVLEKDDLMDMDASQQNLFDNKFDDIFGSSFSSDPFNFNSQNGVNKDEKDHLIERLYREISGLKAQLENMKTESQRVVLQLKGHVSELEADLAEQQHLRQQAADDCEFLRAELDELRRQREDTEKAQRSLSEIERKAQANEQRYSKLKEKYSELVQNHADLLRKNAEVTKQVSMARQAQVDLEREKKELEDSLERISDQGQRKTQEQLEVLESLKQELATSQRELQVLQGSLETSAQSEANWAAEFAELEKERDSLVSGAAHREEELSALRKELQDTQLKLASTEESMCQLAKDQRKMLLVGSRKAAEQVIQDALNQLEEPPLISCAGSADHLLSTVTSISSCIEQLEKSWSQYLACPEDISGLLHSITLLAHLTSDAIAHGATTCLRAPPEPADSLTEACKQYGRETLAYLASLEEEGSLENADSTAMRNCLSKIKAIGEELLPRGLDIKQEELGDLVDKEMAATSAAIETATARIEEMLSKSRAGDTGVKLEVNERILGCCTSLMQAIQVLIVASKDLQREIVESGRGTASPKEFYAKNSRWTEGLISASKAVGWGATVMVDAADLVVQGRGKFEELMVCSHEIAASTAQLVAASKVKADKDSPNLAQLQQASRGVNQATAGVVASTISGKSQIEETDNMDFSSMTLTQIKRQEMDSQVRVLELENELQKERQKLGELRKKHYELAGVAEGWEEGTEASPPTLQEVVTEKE
UniProt O15247: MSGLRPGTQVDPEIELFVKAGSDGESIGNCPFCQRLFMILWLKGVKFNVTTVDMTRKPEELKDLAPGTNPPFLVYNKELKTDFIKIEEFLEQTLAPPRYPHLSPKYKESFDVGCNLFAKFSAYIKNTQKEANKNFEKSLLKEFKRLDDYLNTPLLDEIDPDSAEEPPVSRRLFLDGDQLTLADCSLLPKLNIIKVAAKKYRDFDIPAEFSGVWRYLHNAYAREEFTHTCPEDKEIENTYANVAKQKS
UniProt O15524: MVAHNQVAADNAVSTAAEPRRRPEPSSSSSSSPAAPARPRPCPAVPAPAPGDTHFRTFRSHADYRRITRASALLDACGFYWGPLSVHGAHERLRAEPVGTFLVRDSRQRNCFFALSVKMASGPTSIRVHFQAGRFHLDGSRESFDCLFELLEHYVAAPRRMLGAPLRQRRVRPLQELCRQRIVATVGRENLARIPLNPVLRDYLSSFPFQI
UniProt O15131, whole entry: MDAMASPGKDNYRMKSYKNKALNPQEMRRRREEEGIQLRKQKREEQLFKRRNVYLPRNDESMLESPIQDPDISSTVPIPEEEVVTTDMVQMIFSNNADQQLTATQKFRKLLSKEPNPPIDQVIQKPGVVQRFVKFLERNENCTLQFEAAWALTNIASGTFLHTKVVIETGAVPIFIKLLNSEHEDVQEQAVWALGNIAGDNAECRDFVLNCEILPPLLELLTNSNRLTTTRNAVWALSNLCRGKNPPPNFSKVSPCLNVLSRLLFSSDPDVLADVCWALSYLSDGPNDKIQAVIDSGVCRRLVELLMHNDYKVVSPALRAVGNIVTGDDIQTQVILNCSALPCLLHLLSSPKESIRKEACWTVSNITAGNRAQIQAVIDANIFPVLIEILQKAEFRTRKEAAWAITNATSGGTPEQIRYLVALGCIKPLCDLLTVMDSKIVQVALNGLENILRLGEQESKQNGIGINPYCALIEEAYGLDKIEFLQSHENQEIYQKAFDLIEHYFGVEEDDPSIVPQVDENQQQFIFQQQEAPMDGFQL

The targets below were run with Cc1nc(Nc2ncc(C(=O)Nc3c(C)cccc3Cl)s2)cc(N2CCN(CCO)CC2)n1 [dasatinib] (assay: log2 fold change of tryptic peptide abundance, ligand vs vehicle (limited proteolysis) (log2 ratio); higher = more trypsin-susceptible (destabilized)). Conditions: ligand concentration: 5 uM; sample: K562 cleared lysate.
“AP4M1 (peptide sequence: SFLPSGSEMR, peptide start residue: 218) (UniProt O00189)” gave a log2 fold change of -0.296. “ARID1A (peptide sequence: TELLPSRPHAPCPPAPR, peptide start residue: 1863) (UniProt O14497)” showed a log2 fold change of -0.165. “CDC7 (peptide sequence: YALVDFGLAQGTHDTK, peptide start residue: 192) (UniProt O00311)” showed a log2 fold change of -0.417. With “UniProt E9PRG8 (peptide sequence: EKTAMEVEAPSKPAR, peptide start residue: 82)” the log2 fold change was 0.14. For “RER1 (peptide sequence: YRGKEDAGK, peptide start residue: 184) (UniProt O15258)”, the log2 fold change was -0.269. For “CHD1 (peptide sequence: ELEPFLLR, peptide start residue: 689) (UniProt O14646)”, the log2 fold change was -0.283. “HGS (peptide sequence: ESDAMFAAER, peptide start residue: 147) (UniProt O14964)” gave a log2 fold change of 0.12. In the case of “TOR1B (peptide sequence: IYSDKGCK, peptide start residue: 320) (UniProt O14657)”, the log2 fold change is reported as -0.2. Target “P4HA2 (peptide sequence: RLLSLDPSHER, peptide start residue: 232) (UniProt O15460)” has a log2 fold change of -0.266. “ESPN (peptide sequence: SLKPTPQSK, peptide start residue: 664) (UniProt B1AK53)” gave a log2 fold change of -0.585. With “PITPNM1 (peptide sequence: EGPGTPPTTLAR, peptide start residue: 1219) (UniProt O00562)” the log2 fold change was -0.313. For “NFKBIE (peptide sequence: GLMGISSTLCK, peptide start residue: 448) (UniProt O00221)”, the log2 fold change was -0.382. In the case of “RIOK3 (peptide sequence: EAYYQTLHLMR, peptide start residue: 384) (UniProt O14730)”, the log2 fold change is reported as 0.0686. “AP3B1 (peptide sequence: TVIGSVLLR, peptide start residue: 1077) (UniProt O00203)” gave a log2 fold change of -0.201. “HIP1 (peptide sequence: QVPNPLPK, peptide start residue: 10) (UniProt O00291)” was tested, and the log2 fold change was -0.351. In the case of “CLIC2 (peptide sequence: YRDFDIPAEFSGVWR, peptide start residue: 200) (UniProt O15247)”, the log2 fold change is reported as -0.252. Target “UniProt O15111 (peptide sequence: GGPVDLTLK, peptide start residue: 288)” has a log2 fold change of 0.351. “UniProt O15259 (peptide sequence: EENESHK, peptide start residue: 144)” showed a log2 fold change of -0.079. For “PSMD12 (peptide sequence: VEFILEQMR, peptide start residue: 183) (UniProt O00232)”, the log2 fold change was -0.25. “UniProt O15524 (peptide sequence: IPLNPVLR, peptide start residue: 194)” was tested, and the log2 fold change was 0.26. Target “XPO1 (peptide sequence: AVGHPFVIQLGR, peptide start residue: 701) (UniProt O14980)” has a log2 fold change of -0.197. “KPNA5 (peptide sequence: LLSKEPNPPIDQVIQKPGVVQR, peptide start residue: 110) (UniProt O15131)” was tested, and the log2 fold change was -0.23. In the case of “UniProt O00370 (peptide sequence: AIRQEKEIK, peptide start residue: 678)”, the log2 fold change is reported as -0.0869. “CDC42EP2 (peptide sequence: ELPDGPSPLLK, peptide start residue: 95) (UniProt O14613)” showed a log2 fold change of -0.368. For “STX7 (peptide sequence: ETDKYIKEFGSLPTTPSEQR, peptide start residue: 65) (UniProt O15400)”, the log2 fold change was -0.149. With “MYO1F (peptide sequence: GGPLPLEIMSGGGTHRPPR, peptide start residue: 964) (UniProt O00160)” the log2 fold change was 0.0987.
